In the supplement of paper PMC12819154, “High-throughput peptide-centric local stability assay extends protein–ligand identification to membrane proteins, tissues and bacteria” (Nature Structural & Molecular Biology, 2025):
Some of the results follow. Most values lie at the level of the controls, where differences are scatter.

The chains behind the UniProt entries cited, without tags or fusion partners. Where a name states a change or a piece, a line headed by the entry shows the natural chain unless it says otherwise.
UniProt Q99941: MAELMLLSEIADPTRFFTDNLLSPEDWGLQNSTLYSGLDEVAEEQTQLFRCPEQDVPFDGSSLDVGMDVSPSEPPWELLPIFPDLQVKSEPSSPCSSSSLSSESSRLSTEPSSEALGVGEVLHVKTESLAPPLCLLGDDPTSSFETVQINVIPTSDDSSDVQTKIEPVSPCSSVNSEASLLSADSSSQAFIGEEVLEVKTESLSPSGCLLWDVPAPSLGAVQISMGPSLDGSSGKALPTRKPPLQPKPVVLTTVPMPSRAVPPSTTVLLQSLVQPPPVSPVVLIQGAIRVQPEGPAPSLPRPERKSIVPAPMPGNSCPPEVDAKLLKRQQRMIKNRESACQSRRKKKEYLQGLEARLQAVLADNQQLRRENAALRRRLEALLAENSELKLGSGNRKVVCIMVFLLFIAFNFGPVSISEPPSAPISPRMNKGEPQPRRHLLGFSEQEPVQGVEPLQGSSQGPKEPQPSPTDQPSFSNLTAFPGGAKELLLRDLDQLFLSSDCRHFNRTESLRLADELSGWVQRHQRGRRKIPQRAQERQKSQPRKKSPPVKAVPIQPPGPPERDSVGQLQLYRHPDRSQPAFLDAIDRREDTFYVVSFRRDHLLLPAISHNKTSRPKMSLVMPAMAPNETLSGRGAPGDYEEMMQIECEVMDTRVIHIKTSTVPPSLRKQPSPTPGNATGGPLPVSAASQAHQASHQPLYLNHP
UniProt Q9BT09: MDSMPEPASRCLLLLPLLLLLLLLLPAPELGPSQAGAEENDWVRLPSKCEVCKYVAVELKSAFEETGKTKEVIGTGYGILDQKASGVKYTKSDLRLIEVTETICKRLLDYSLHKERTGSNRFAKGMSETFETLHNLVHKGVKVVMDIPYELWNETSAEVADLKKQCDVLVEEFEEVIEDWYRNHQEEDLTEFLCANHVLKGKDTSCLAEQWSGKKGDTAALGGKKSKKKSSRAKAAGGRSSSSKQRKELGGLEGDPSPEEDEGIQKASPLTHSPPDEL
UniProt Q96S59, whole entry: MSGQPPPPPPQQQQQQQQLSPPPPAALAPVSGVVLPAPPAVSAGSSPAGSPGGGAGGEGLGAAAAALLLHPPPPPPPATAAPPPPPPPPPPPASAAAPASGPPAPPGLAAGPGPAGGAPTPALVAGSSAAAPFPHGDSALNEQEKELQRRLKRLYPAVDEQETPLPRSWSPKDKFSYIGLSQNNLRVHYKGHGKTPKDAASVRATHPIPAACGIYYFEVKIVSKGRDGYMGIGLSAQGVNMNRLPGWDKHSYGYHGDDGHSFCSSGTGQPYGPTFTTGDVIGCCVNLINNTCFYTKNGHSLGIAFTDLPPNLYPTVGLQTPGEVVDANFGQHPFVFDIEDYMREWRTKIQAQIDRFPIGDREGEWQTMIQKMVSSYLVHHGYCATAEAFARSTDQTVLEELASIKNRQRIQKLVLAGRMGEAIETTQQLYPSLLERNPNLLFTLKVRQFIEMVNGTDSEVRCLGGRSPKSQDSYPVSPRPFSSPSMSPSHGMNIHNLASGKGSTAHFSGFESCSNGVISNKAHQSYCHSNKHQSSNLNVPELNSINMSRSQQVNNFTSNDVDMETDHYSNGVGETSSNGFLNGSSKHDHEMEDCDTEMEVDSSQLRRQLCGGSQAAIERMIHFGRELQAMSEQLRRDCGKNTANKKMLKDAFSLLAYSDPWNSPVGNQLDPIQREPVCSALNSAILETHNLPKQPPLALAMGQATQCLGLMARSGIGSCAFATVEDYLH
UniProt Q99640: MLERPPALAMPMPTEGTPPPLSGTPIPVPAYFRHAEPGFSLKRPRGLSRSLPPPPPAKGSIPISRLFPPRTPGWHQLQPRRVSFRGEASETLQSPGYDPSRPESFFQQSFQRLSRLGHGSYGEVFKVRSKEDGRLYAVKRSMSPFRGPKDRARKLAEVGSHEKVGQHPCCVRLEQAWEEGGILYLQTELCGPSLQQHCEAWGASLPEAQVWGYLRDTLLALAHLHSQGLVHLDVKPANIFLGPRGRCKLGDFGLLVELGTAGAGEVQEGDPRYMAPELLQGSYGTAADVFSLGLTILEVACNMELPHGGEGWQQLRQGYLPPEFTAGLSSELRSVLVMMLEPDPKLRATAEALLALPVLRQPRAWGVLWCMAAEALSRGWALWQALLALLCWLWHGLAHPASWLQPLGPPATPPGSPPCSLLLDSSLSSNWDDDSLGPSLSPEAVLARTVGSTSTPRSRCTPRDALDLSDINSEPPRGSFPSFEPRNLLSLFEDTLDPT
UniProt Q9BS34: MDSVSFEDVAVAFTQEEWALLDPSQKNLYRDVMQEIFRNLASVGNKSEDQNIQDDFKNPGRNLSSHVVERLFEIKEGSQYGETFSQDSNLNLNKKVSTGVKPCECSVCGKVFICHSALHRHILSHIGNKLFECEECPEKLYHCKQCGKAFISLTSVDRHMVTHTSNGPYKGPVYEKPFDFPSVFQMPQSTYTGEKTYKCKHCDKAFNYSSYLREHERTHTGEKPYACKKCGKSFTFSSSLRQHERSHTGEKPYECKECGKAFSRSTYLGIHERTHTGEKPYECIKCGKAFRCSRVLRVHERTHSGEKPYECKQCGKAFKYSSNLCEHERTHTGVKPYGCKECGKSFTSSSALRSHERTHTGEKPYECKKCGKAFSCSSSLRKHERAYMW
UniProt Q99471, whole entry: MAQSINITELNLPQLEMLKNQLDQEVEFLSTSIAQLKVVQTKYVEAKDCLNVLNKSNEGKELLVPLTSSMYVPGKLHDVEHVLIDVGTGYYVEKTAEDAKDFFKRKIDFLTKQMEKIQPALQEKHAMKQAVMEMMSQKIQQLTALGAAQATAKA
UniProt Q9BRK5: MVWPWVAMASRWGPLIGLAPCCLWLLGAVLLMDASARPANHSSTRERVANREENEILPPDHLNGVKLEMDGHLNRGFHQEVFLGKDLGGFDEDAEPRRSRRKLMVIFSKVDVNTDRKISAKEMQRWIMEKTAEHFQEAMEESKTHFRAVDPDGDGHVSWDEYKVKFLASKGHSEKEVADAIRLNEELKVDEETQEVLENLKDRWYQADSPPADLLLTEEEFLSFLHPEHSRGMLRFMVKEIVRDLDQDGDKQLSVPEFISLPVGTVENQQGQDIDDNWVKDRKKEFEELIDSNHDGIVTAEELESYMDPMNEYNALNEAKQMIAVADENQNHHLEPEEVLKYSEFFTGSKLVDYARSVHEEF
UniProt Q96S90: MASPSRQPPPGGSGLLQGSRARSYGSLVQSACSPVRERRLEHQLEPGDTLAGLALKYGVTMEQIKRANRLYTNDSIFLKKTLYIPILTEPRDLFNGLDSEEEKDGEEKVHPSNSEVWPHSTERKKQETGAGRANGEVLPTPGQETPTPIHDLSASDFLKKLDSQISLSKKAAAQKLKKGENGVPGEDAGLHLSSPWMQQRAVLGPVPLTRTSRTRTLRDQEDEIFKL
UniProt Q9BR76, whole entry: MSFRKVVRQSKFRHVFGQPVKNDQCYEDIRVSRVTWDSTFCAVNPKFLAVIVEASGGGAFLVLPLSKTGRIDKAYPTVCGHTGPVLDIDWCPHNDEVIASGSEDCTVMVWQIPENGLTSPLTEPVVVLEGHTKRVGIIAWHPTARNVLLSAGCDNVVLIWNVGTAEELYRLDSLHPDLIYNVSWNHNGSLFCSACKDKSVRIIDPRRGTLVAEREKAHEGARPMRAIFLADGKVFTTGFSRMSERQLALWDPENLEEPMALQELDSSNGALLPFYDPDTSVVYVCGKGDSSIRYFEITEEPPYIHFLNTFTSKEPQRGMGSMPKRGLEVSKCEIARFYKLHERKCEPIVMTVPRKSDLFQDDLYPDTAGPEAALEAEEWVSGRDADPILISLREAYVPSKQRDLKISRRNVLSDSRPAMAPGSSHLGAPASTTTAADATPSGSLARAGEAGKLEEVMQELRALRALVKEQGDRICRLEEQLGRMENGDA
UniProt Q9BU70: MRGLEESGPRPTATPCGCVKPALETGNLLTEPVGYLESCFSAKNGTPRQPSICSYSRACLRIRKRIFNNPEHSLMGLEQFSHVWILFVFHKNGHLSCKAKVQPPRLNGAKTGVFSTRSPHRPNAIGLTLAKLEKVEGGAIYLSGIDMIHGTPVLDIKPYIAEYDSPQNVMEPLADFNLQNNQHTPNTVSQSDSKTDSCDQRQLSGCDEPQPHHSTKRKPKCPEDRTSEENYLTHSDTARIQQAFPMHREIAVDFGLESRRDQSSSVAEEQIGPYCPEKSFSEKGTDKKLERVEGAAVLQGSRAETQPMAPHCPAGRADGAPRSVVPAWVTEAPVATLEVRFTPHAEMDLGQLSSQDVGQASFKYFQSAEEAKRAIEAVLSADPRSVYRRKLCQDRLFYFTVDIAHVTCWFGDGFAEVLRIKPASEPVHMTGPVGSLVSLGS

Compound: Cc1nc(Nc2ncc(C(=O)Nc3c(C)cccc3Cl)s2)cc(N2CCN(CCO)CC2)n1 [dasatinib]
Test: log2 fold change of tryptic peptide abundance, ligand vs vehicle (limited proteolysis) (log2 ratio); higher = more trypsin-susceptible (destabilized)
Conditions: ligand concentration: 5 uM; sample: K562 cleared lysate

Target | log2 fold change
ATF6B (peptide sequence: LSTEPSSEALGVGEVLHVK, peptide start residue: 107) (UniProt Q99941) | -0.247
CNPY3 (peptide sequence: ASPLTHSPPDEL, peptide start residue: 267) (UniProt Q9BT09) | -0.146
RANBP9 (peptide sequence: EGEWQTMIQK, peptide start residue: 362) (UniProt Q96S59) | -0.284
PKMYT1 (peptide sequence: KLAEVGSHEK, peptide start residue: 154) (UniProt Q99640) | -1.2
ZNF670 (peptide sequence: STYLGIHER, peptide start residue: 265) (UniProt Q9BS34) | -0.0808
PFDN5 (peptide sequence: LHDVEHVLIDVGTGYYVEK, peptide start residue: 76) (UniProt Q99471) | 0.349
SDF4 (peptide sequence: GHSEKEVADAIR, peptide start residue: 171) (UniProt Q9BRK5) | 0.139
LYSMD1 (peptide sequence: RLEHQLEPGDTLAGLALK, peptide start residue: 39) (UniProt Q96S90) | -0.101
CORO1B (peptide sequence: HVFGQPVKNDQCYEDIR, peptide start residue: 14) (UniProt Q9BR76) | -0.8
TRMO (peptide sequence: TSEENYLTHSDTAR, peptide start residue: 226) (UniProt Q9BU70) | 0.74

Given as comma-separated lines: part of the list above
Target,log2 fold change
"ATF6B (peptide sequence: LSTEPSSEALGVGEVLHVK, peptide start residue: 107) (UniProt Q99941)",-0.247
"PFDN5 (peptide sequence: LHDVEHVLIDVGTGYYVEK, peptide start residue: 76) (UniProt Q99471)",0.349
"LYSMD1 (peptide sequence: RLEHQLEPGDTLAGLALK, peptide start residue: 39) (UniProt Q96S90)",-0.101
